From patent US9808434B2, “Compound for treating cancer and diabetes” (CITY OF HOPE, priority 2011, dated 2017) come the findings set out here.

Molecules are shown by their SMILES.

One series deals with hepatic genes. Nature of the series: Liver gene expression of HFD obese and db/db mice. It is filed as in vivo, mouse. To be noted: RNA sequencing. The text has this: Total RNA was isolated from livers of lean, vehicle or COH-SR4-treated HFD mice using standard protocols and subjected to quantitative RT-PCR using primers for key genes associated with lipid and fatty acid synthesis (Acaca, Pparg, Acly, Scd1, Srebf1, Hmgcr, Cpt1, Fasn) and gluconeogenesis (G6pc, Pck1). Livers of db/+ and db/db mice treated with vehicle or COH-SR4 were used for RNA-seq analysis. RNA isolation, purification, sequencing, library preparation and read alignments were done at the City of Hope Functional Genomics Core facility. Differential gene expression was identified from standard Partek workflow (Partek Genomics Suite v6.6, Partek, Inc) using ANOVA, with step-up FDR multiple testing correction p-value of <0.05 and 1.5× fold change. […] Databases utilized included GOTERM_BP_FAT (biological process) and Kyoto Encyclopedia of Genes and Genomes (KEGG_PATHWAY).
Total RNA was isolated from liver of control animals and HFD obese or db/db mice treated with vehicle or COH-SR4 (as described in Example 35). Relative mRNA expression (mean±SEM) of lipogenic and gluconeogenic genes were determined using real time RT-PCR and quantified using the comparative Ct method (FIG. 86A, ^#P<0.05, ^##P<0.01 vs. HFD). […] Key hepatic genes associated with lipid/fatty acid synthesis and glucose and amino acid metabolism regulated by COH-SR4 in db/db mice are shown in FIG. 86D.

In another series the test system is B16-F0 melanoma cells. Nature of the series: RNA-sequence differential gene expression, B16-F0. It is filed as cell-based, mouse. To be noted: 5 μM.

As to `O=C(Nc1cc(Cl)cc(Cl)c1)Nc1cc(Cl)cc(Cl)c1` [COH-SR4, 1,3-bis(3,5-dichlorophenyl) urea], in the series on hepatic genes, the “differentially expressed genes in liver” value is on record as 642 genes, the “downregulated genes in liver” value is listed as 425 genes and the “upregulated genes in liver” value came out at 217 genes. For the same compound, in the series with B16-F0 melanoma cells (4 h), the differentially expressed genes is listed as 773 genes, the downregulated genes stood at 184 genes and the upregulated genes is 589 genes. For the same compound, in the series with B16-F0 melanoma cells (24 h), the differentially expressed genes is recorded as 3828 genes, the down-regulated genes was 1865 genes and the upregulated genes is recorded as 1963 genes.
